Results published in the supplement of paper PMC10849652.
The other results are listed elsewhere or left out.

Protein sequences, listed by entry. Tags and fused reporters are not part of them. Lines headed by an entry give the natural chain unless they say otherwise; changes in a name come on top.
UniProt P25791: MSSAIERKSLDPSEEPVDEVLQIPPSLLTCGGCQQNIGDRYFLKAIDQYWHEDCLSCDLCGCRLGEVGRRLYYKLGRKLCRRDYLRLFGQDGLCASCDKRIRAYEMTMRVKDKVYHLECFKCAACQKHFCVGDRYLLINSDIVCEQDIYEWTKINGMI
UniProt Q9H9A6: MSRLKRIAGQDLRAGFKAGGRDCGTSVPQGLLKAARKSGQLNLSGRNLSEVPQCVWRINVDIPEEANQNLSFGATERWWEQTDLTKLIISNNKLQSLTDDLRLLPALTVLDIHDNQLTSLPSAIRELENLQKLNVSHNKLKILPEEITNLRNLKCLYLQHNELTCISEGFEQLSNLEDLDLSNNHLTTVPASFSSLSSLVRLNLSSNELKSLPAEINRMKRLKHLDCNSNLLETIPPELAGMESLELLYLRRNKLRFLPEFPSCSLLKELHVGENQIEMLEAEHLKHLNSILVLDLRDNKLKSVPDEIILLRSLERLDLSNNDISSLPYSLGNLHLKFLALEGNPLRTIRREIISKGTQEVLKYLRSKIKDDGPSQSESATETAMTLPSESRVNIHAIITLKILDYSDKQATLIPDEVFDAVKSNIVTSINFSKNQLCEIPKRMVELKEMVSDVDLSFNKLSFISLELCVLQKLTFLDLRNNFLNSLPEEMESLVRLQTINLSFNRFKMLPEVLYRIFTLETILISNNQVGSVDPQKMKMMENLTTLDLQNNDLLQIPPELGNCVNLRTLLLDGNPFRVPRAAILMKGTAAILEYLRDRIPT
UniProt P11279: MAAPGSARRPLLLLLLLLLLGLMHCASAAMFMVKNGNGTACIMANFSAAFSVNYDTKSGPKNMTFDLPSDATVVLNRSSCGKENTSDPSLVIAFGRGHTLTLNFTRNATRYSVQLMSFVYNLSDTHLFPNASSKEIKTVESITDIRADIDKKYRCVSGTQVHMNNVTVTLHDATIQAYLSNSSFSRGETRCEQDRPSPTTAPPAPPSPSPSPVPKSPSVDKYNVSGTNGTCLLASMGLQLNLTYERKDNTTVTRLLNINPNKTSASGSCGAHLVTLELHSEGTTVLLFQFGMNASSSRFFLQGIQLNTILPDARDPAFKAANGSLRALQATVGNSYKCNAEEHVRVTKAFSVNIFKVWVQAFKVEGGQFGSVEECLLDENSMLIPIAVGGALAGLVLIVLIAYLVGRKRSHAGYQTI
UniProt Q8IWU2: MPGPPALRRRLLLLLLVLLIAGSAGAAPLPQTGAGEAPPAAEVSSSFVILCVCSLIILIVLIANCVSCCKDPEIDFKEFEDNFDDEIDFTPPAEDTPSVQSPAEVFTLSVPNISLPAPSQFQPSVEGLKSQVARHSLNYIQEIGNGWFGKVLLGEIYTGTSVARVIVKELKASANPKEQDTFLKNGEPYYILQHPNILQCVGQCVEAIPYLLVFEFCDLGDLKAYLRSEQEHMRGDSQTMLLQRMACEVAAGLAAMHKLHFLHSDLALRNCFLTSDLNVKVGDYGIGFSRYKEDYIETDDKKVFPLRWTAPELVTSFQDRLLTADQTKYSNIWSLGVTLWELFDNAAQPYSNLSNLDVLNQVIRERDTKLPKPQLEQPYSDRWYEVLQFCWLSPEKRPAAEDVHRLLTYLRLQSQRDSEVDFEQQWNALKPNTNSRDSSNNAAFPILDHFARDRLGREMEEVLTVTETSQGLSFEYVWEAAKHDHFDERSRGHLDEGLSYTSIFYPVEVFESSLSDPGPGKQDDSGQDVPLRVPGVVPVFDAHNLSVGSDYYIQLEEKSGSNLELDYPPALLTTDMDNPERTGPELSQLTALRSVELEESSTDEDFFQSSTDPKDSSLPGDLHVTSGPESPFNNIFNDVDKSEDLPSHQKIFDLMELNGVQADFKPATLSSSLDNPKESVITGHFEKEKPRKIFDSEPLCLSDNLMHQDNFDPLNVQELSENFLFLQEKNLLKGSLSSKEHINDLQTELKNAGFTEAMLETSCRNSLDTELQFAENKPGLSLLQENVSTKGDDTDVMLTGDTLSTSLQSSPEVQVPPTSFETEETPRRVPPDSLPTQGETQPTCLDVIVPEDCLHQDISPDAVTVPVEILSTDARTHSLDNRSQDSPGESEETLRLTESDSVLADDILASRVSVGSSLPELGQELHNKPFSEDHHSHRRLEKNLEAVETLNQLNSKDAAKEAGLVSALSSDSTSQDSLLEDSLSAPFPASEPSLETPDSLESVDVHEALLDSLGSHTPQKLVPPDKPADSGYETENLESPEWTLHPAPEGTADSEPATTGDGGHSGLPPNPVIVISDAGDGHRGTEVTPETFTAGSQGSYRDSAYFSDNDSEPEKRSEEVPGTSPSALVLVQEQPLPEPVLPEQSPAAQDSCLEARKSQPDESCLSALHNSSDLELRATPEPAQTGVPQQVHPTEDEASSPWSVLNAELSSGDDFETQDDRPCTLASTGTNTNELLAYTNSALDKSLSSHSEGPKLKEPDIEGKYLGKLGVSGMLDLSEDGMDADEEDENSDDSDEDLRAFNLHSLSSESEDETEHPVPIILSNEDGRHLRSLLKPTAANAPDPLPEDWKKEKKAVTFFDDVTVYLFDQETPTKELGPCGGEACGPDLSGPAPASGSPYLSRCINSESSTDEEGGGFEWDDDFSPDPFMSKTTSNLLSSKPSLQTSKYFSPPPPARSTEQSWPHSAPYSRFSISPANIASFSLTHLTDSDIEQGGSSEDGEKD
UniProt Q8N1G4: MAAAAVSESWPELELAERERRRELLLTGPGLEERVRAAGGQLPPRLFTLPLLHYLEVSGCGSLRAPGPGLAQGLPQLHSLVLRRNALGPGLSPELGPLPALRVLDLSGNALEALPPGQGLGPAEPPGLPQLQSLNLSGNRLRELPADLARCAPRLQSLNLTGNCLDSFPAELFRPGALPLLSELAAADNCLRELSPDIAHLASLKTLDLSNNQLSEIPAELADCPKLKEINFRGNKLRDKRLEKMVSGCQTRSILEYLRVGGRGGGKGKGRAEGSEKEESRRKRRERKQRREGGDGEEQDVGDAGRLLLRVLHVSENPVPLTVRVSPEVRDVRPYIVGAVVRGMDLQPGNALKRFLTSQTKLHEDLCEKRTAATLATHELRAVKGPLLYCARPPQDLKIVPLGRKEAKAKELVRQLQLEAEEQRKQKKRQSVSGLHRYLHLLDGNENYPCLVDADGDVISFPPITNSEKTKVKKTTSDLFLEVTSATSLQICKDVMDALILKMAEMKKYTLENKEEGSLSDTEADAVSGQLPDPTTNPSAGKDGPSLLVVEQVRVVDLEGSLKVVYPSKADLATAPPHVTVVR
UniProt Q9NS86: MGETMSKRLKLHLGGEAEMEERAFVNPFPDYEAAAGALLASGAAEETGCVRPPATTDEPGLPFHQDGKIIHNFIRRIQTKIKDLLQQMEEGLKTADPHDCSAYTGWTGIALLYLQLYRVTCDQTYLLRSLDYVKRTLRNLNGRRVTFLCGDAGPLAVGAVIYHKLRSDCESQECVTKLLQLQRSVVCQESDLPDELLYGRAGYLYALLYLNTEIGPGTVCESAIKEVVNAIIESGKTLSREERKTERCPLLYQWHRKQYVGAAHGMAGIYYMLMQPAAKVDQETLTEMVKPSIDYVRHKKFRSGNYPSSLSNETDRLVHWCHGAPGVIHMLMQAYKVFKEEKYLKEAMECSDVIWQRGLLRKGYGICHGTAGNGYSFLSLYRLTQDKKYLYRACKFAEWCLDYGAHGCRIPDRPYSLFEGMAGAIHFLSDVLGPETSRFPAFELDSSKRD
UniProt E9PP15: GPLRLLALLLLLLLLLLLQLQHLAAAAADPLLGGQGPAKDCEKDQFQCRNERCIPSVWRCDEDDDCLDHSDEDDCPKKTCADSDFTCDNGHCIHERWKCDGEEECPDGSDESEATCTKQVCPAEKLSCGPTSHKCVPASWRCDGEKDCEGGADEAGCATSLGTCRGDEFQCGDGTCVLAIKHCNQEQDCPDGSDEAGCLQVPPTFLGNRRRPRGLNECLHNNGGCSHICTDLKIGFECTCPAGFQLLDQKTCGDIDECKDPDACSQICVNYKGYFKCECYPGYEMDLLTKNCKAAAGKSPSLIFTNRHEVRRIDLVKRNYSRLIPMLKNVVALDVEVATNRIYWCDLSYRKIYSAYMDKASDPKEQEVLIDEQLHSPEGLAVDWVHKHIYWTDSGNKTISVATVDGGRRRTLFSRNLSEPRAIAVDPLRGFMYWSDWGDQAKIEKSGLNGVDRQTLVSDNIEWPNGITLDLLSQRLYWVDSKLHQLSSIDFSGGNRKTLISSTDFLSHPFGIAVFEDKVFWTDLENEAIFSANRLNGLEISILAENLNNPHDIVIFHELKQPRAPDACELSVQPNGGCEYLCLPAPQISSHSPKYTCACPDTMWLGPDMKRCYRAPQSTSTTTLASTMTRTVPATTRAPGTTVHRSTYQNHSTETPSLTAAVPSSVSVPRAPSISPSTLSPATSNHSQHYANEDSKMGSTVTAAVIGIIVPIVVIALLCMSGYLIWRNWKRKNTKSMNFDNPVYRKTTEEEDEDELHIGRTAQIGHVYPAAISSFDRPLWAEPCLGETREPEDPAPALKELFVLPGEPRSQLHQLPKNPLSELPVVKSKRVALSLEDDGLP
UniProt Q9H9P8: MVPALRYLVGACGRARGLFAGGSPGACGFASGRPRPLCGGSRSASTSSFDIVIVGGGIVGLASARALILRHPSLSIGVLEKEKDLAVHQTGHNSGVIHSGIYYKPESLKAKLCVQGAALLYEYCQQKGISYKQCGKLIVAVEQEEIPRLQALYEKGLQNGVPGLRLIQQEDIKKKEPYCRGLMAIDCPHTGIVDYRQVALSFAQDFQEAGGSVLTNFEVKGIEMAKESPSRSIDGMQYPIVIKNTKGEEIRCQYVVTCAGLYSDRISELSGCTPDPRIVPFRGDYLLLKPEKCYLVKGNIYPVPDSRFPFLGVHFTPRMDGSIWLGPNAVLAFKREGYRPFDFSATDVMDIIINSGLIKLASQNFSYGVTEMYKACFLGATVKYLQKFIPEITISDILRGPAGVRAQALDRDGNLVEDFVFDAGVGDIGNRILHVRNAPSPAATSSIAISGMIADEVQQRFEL
UniProt Q5T3J3: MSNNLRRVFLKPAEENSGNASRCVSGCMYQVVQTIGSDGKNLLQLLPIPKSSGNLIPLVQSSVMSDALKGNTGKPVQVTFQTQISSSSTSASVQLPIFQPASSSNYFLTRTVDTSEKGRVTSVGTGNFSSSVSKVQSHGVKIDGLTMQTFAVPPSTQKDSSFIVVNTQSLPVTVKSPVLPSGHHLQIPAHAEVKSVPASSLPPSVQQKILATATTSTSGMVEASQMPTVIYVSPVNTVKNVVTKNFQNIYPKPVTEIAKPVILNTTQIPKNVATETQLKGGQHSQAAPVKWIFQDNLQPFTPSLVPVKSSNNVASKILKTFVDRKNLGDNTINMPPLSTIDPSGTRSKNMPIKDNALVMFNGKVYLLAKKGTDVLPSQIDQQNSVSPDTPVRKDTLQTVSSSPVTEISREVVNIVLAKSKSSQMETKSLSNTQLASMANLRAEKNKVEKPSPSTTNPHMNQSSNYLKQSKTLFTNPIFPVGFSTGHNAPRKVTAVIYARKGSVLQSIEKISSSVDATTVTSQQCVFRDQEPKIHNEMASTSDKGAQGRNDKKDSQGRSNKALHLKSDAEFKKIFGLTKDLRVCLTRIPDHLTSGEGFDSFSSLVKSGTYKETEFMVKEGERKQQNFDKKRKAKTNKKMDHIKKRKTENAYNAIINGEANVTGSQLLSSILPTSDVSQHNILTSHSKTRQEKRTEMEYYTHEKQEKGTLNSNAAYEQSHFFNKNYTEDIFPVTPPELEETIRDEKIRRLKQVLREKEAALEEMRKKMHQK
UniProt Q6IAA8, whole entry, looked up: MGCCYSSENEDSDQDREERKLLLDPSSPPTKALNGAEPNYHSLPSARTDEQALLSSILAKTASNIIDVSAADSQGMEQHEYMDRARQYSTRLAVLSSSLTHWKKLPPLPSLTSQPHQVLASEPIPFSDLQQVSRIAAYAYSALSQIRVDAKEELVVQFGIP
UniProt Q7L5N7: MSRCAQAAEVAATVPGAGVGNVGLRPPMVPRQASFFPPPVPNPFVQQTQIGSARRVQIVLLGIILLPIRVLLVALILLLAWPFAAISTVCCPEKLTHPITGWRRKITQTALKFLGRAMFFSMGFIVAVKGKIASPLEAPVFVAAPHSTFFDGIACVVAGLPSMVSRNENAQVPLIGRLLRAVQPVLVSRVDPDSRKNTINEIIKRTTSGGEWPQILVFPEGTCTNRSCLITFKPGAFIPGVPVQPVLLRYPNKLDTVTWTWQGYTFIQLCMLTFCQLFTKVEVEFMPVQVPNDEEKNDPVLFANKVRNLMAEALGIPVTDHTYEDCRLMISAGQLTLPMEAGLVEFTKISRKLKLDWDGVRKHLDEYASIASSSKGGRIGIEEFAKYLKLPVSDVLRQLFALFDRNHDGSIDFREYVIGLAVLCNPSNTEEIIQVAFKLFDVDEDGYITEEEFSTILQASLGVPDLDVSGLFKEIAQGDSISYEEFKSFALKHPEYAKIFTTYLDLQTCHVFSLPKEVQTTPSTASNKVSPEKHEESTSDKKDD

Key:
Test in all cases: log2 fold change, soluble protein after heating vs DMSO (PISA); higher = thermal stabilisation; K562 cells, 10 uM, 30 min; active = over 0.2 and 3.5 SD of the protein, either way, in both replicates (recomputed)
[1] = compound: COC1=CC=C(C=C1)CN2C=CC3=C2C=C(C=C3)C(=O)NO
How it was run: (§1)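 Aliquots of K562 cells (2×10^6 cells/mL) treated with 10 μM compound for 30 min were heated for 3 min over 48°C-58°C. After pooling and extraction in PBS with 0.5% NP-40 at 4°C, soluble protein from a 21,000xg, 90 min spin was quantified by TMTpro 16plex LC-MS/MS with channel sums equalised. Thermal stability is expressed against control samples, from duplicates, as a log2 fold change.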

filanesib = compound: CON(C)C(=O)N1N=C(c2cc(F)ccc2F)S[C@@]1(CCCN)c1ccccc1 [filanesib]
How it was run: as §1

zotarolimus = compound: CO[C@H]1C[C@@H]2CC[C@@H](C)[C@@](O)(O2)C(=O)C(=O)N2CCCC[C@H]2C(=O)O[C@H]([C@H](C)C[C@@H]2CC[C@H](n3cnnn3)[C@H](OC)C2)CC(=O)[C@H](C)/C=C(\C)[C@@H](O)[C@@H](OC)C(=O)[C@H](C)C[C@H](C)/C=C/C=C/C=C/1C [zotarolimus]
How it was run: as §1

idasanutlin = compound: COc1cc(C(=O)O)ccc1NC(=O)[C@@H]1N[C@@H](CC(C)(C)C)[C@](C#N)(c2ccc(Cl)cc2F)[C@H]1c1cccc(Cl)c1F [idasanutlin]
How it was run: as §1

alisertib = compound: COc1cc(Nc2ncc3c(n2)-c2ccc(Cl)cc2C(c2c(F)cccc2OC)=NC3)ccc1C(=O)O [alisertib]
How it was run: as §1

[2] = compound: COc1cc2nc(-c3cc(F)ccc3O)nc(N[C@@H]3CNC[C@H]3C(C)(C)O)c2cc1OC
How it was run: as §1

gefitinib = compound: COc1cc2ncnc(Nc3ccc(F)c(Cl)c3)c2cc1OCCCN1CCOCC1 [gefitinib]
How it was run: as §1

[3] = compound: COc1cccc2cc(-c3nc([C@H]4CC[C@H](C(=O)O)CC4)n4ncnc(N)c34)[nH]c12
How it was run: as §1

lapatinib = compound: CS(=O)(=O)CCNCc1ccc(-c2ccc3ncnc(Nc4ccc(OCc5cccc(F)c5)c(Cl)c4)c3c2)o1 [lapatinib]
How it was run: as §1

pictilisib = compound: CS(=O)(=O)N1CCN(Cc2cc3nc(-c4cccc5[nH]ncc45)nc(N4CCOCC4)c3s2)CC1 [pictilisib]
How it was run: as §1

Measured: log2 fold change

LMO2 isoform 3 (UniProt P25791)
inactive: [1] 0.038 | filanesib -0.019 | zotarolimus 0.192 | idasanutlin 0.048 | alisertib -0.054 | [2] 0.053 | gefitinib -0.034 | [3] -0.041 | lapatinib 0.008 | pictilisib 0.046

KTN1 (UniProt Q86UP2)
inactive: [1] 0.023 | filanesib 0.146 | zotarolimus 0.034 | idasanutlin 0.004 | alisertib 0.032 | [2] -0.001 | gefitinib -0.08 | [3] -0.116 | lapatinib -0.038 | pictilisib -0.086

LRRC40 (UniProt Q9H9A6)
inactive: [1] -0.017 | filanesib -0.028 | zotarolimus -0.026 | idasanutlin -0.024 | alisertib 0.074 | [2] 0.021 | gefitinib 0.013 | [3] -0.093 | lapatinib 0.01 | pictilisib -0.029

LIMS1 isoform 3 (UniProt P48059)
inactive: [1] 0.046 | filanesib -0.01 | zotarolimus 0.007 | idasanutlin -0.007 | alisertib -0.019 | [2] 0.007 | gefitinib -0.022 | [3] -0.023 | lapatinib -0.017 | pictilisib 0.038

LAMP1 (UniProt P11279)
inactive: [1] -0.112 | filanesib 0.031 | zotarolimus -0.003 | idasanutlin -0.043 | alisertib 0.055 | [2] -0.003 | gefitinib 0.022 | [3] 0.071 | lapatinib 0 | pictilisib 0.024

LRRC59 (UniProt Q96AG4)
inactive: [1] 0.064 | filanesib -0.029 | zotarolimus 0.004 | idasanutlin 0.034 | alisertib -0.047 | [2] 0.017 | gefitinib 0.014 | [3] -0.03 | lapatinib -0.064 | pictilisib 0.01

LMTK2 (UniProt Q8IWU2)
inactive: [1] 0.039 | filanesib -0.055 | zotarolimus -0.139 | idasanutlin 0.05 | alisertib -0.053 | [2] 0.043 | [3] -0.06 | lapatinib 0.095 | pictilisib 0.043

LRRC57 (UniProt Q8N9N7)
inactive: [1] -0.003 | filanesib -0.066 | zotarolimus 0.02 | idasanutlin -0.045 | alisertib -0.021 | [2] 0.047 | gefitinib 0.015 | [3] 0.031 | lapatinib 0.011 | pictilisib 0.04

LAMB1 (UniProt P07942)
inactive: [1] -0.013 | filanesib 0.048 | zotarolimus 0.028 | idasanutlin 0.001 | alisertib -0.012 | [2] -0.044 | gefitinib 0.018 | [3] 0.027 | lapatinib 0.009 | pictilisib 0

LRRC47 (UniProt Q8N1G4)
inactive: [1] 0.105 | filanesib -0.09 | zotarolimus 0.034 | idasanutlin -0.029 | alisertib -0.046 | [2] -0.003 | gefitinib -0.002 | [3] 0.03 | lapatinib 0 | pictilisib 0.046

LANCL2 (UniProt Q9NS86)
inactive: [1] -0.019 | filanesib -0.011 | zotarolimus -0.021 | idasanutlin -0.019 | alisertib -0.095 | [2] 0.06 | gefitinib 0.008 | [3] 0.051 | lapatinib -0.019 | pictilisib -0.071

LRP8 (UniProt E9PP15)
inactive: [1] 0.257 | filanesib 0.192 | zotarolimus 0.029 | idasanutlin -0.042 | alisertib -0.041 | [2] 0.023 | [3] -0.071 | lapatinib -0.05

L2HGDH (UniProt Q9H9P8)
inactive: [1] 0.096 | filanesib -0.121 | zotarolimus 0.07 | idasanutlin -0.037 | alisertib -0.019 | [2] -0.034 | gefitinib -0.01 | [3] 0.041 | lapatinib -0.069 | pictilisib 0.115

LRIF1 (UniProt Q5T3J3)
inactive: [1] -0.004 | filanesib -0.004 | zotarolimus 0.034 | idasanutlin 0 | alisertib -0.042 | [2] -0.015 | gefitinib 0.004 | [3] 0.061 | lapatinib 0.035 | pictilisib 0.001

LRBA (UniProt P50851)
inactive: [1] -0.004 | filanesib -0.06 | zotarolimus 0.002 | idasanutlin -0.113 | alisertib -0.017 | [2] 0.029 | gefitinib -0.008 | [3] 0.031 | lapatinib 0.009 | pictilisib -0.015

LAMTOR1 (UniProt Q6IAA8)
inactive: [1] 0.139 | filanesib -0.051 | zotarolimus 0.036 | idasanutlin 0 | alisertib -0.111 | [2] -0.151 | gefitinib -0.008 | [3] -0.237 | lapatinib 0.011 | pictilisib -0.126

LPCAT2 (UniProt Q7L5N7)
inactive: [1] 0.03 | filanesib -0.036 | zotarolimus 0.054 | idasanutlin -0.115 | alisertib 0.097 | [2] 0.158 | [3] -0.048 | lapatinib 0.018 | pictilisib -0.043

Random excerpt: two records from the list.
LRRC47 (UniProt Q8N1G4)
inactive: [1] 0.105 | filanesib -0.09 | zotarolimus 0.034 | idasanutlin -0.029 | alisertib -0.046 | [2] -0.003 | gefitinib -0.002 | [3] 0.03 | lapatinib 0 | pictilisib 0.046

LANCL2 (UniProt Q9NS86)
inactive: [1] -0.019 | filanesib -0.011 | zotarolimus -0.021 | idasanutlin -0.019 | alisertib -0.095 | [2] 0.06 | gefitinib 0.008 | [3] 0.051 | lapatinib -0.019 | pictilisib -0.071

Further records follow.

LACTB2 (UniProt Q53H82)
inactive: [1] -0.015 | filanesib -0.013 | zotarolimus -0.02 | idasanutlin 0.008 | alisertib -0.031 | [2] -0.004 | gefitinib 0.017 | [3] 0.034 | lapatinib -0.02 | pictilisib 0.027

LAMTOR5 (UniProt O43504)
inactive: [1] 0.053 | filanesib 0.093 | zotarolimus 0.263 | idasanutlin -0.033 | alisertib -0.073 | [2] -0.145 | gefitinib 0.043 | [3] -0.129 | lapatinib -0.015 | pictilisib -0.323

LMBRD2 (UniProt Q68DH5)
inactive: [1] -0.031 | filanesib -0.095 | zotarolimus 0.108 | idasanutlin -0.012 | alisertib -0.035 | [2] 0.025 | gefitinib 0.082 | [3] -0.021 | lapatinib 0.026 | pictilisib 0.057
